Data published in PubChem BioAssay AID488910 (Broad Institute, 2010).
Among all 20,000 compounds or so, about 25 (0.1%) were called active. This list was built around the results that the source calls inconclusive (neither active nor inactive); the mix of calls is not that of the screen.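 Rule for the calls: active = mean replicate protection from cytokine-induced ATP loss at least 50% and at least 75% of replicates each reaching 50%; inconclusive = meets only one of the two criteria, mean or replicate share; inactive = fails both the mean and replicate share criteria.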

assay: preservation of ATP in cytokine-treated beta cells – cell-based, ATP luminescence, single point, primary screen (AID 488910); conditions: INS-1E cytokine-induced death, 48 h, at 10 µM, stronger effect = higher value, normalised: neutral wells 0, positive control 100
How it was run: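 assay system = INS-1E rat insulinoma cells | amount = 8000 cells per well | medium = phenol-red-free RPMI with 5% fetal bovine serum | doses = one compound concentration, pin transfer | timing = 48 h cytokine plus compound treatment, 10 min reagent incubation | also added = IL-1β, TNF-α and IFN-γ cytokine mix | signal = CellTiter-Glo luminescence measuring cellular ATP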

| Structure (SMILES) | protection from cytokine-induced ATP loss |
| --- | --- |
| C[C@@H]1CN([C@H](C)CO)C(=O)c2cccc(NC(=O)c3ccc(-c4nccs4)cc3)c2O[C@@H]1CN(C)Cc1ccc(C(=O)Nc2ccccc2N)cc1 | inconclusive: 52.2% |
| C[C@@H]1CN([C@@H](C)CO)C(=O)c2cccc(NC(=O)Nc3ccc(C(F)(F)F)cc3)c2O[C@@H]1CN(C)Cc1ccc(C(F)(F)F)cc1 | inactive: -87.6% |
| C[C@H](CO)N1C[C@H](C)[C@H](CN(C)Cc2ccc(Oc3ccccc3)cc2)Oc2ccc(NC(=O)c3ccncc3)cc2CC1=O | inactive: 5.4% |
| C[C@H]1CN([C@@H](C)CO)C(=O)c2cc(NC(=O)CCC(F)(F)F)ccc2O[C@@H]1CN(C)S(=O)(=O)c1ccc(Cl)cc1 | inconclusive: 65.4% |
| C[C@@H]1CN([C@@H](C)CO)C(=O)c2cccc(NC(=O)c3ccc(-c4nccs4)cc3)c2O[C@@H]1CN(C)Cc1ccc(C(=O)Nc2ccccc2N)cc1 | inconclusive: 55.4% |
| C[C@H](CO)N1C[C@H](C)[C@H](CN(C)Cc2ccc(C(=O)Nc3ccccc3N)cc2)Oc2ccc(NS(=O)(=O)c3ccc(F)cc3)cc2CC1=O | inconclusive: 52.3% |
| COc1ccc(NC(=O)N(C)C[C@H]2Oc3c(NC(=O)CCCCCC(=O)Nc4ccccc4N)cccc3C(=O)N([C@@H](C)CO)C[C@H]2C)cc1 | inconclusive: 56.8% |
| C[C@@H]1CN([C@H](C)CO)C(=O)c2cc(N(C)C)ccc2O[C@@H]1CN(C)Cc1ccc(C(=O)Nc2ccccc2N)cc1 | active: 62.7% |
| C[C@@H]1CCCCO[C@H](CN(C)S(=O)(=O)c2ccccc2)[C@@H](C)CN([C@H](C)CO)C(=O)c2cc(NS(=O)(=O)c3ccccc3)ccc2O1 | inactive: 10.9% |
| C[C@@H]1CN([C@@H](C)CO)C(=O)c2cccc(NS(=O)(=O)c3ccccc3)c2O[C@@H]1CN(C)Cc1ccc(C(=O)Nc2ccccc2N)cc1 | inconclusive: 51.7% |
